Results from publication PMC11998485.
Results are given in words; binding and its absence hold for the method and conditions named. Binding seen in cells or lysates may run through a third protein. Some entries that bind do so weakly or less than the wild type.

Amino acid sequences for entries named in this document (tags omitted).
UniProt P10240: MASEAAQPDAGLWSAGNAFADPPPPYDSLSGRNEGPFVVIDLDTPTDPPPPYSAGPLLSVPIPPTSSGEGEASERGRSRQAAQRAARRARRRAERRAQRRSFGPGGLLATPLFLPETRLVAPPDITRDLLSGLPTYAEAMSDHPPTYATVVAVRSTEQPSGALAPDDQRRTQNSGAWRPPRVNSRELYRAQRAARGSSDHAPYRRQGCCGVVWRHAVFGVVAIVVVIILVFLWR
UniProt Q96PU5: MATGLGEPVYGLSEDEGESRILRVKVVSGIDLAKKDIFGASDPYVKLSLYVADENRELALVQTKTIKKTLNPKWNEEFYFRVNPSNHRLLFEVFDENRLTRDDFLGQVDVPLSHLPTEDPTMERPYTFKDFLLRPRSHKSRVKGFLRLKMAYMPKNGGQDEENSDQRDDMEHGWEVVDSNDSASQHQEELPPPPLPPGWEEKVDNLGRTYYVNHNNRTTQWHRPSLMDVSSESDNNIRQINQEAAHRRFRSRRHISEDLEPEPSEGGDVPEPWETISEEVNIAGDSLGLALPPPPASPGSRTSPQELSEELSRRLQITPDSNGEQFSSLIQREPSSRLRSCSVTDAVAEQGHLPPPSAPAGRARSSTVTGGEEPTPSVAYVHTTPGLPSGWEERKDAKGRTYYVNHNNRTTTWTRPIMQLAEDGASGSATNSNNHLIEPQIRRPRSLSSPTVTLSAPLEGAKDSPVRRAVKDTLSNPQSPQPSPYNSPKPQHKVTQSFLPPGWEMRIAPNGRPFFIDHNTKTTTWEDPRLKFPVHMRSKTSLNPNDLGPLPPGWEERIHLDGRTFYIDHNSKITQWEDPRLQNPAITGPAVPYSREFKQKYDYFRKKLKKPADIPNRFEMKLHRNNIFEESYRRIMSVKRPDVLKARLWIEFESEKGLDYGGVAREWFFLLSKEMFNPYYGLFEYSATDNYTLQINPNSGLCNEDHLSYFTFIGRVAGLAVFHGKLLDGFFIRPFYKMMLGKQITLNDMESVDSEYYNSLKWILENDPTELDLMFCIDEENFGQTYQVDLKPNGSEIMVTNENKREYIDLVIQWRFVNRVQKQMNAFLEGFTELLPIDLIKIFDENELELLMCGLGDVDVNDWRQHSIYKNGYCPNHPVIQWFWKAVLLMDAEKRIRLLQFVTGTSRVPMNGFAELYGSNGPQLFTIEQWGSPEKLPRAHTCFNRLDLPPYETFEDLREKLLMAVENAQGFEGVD
UniProt P46934: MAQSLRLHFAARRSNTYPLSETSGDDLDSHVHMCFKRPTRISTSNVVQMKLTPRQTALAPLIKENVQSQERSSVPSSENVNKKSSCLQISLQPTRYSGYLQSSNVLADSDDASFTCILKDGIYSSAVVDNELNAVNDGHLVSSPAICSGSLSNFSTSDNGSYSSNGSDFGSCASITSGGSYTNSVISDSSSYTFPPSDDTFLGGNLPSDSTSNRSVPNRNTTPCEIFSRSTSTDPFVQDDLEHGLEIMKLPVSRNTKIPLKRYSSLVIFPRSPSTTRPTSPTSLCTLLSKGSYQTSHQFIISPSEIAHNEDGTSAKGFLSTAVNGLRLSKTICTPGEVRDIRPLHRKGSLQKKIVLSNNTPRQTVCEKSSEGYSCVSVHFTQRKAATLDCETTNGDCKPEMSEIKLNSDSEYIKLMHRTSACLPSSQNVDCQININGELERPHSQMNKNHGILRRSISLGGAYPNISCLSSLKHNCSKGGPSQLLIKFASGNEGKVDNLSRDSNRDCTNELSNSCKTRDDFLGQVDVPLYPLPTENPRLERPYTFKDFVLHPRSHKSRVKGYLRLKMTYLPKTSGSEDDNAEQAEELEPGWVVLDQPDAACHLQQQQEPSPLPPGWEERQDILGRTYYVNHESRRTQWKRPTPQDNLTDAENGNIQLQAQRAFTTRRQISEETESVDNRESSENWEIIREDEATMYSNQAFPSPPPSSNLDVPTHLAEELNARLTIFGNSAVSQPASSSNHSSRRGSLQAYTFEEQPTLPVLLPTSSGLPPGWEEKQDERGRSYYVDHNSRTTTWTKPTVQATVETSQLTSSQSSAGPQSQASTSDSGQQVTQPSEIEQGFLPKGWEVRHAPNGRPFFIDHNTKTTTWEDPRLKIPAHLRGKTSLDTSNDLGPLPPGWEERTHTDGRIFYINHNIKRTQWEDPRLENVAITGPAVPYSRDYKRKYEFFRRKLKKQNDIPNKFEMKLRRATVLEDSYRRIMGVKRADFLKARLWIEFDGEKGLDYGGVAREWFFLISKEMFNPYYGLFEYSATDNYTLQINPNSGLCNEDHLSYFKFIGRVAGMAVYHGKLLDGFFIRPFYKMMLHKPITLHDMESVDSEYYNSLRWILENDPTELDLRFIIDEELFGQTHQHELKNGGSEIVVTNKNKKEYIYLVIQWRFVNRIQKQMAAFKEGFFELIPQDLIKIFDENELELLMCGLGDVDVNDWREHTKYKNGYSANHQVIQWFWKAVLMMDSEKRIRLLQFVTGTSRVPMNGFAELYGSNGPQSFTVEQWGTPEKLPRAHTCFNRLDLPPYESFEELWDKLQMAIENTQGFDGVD

What was measured:
[1] = target: HSV-1 UL56 protein (HSV-1) (UniProt P10240); test: co-IP; 293T.CD1d cells transfected with UL56 and FLAG-tagged NEDD4 or NEDD4L, alone or in combination; IP with anti-UL56 and blot with anti-FLAG; reciprocal IP with anti-FLAG and blot with anti-UL56
[2] = target: endogenous NEDD4L protein (human (endogenous in HeLa.CD1d)) (UniProt Q96PU5); test: co-IP; HeLa.CD1d cells infected with HSV-1 KOS strain at m.o.i. of 5 for 24 hours; IP of UL56 or of endogenous NEDD4L, blot for the counterpart; normal rabbit serum as control
[3] = target: FLAG-tagged NEDD4L (UniProt Q96PU5); test: co-IP; 293T.CD1d cells transfected with UL56 and FLAG-tagged NEDD4 or NEDD4L, alone or in combination; IP with anti-UL56 and blot with anti-FLAG; reciprocal IP with anti-FLAG and blot with anti-UL56

With “FLAG-tagged NEDD4 (from UniProt P46934 1-1319) (enzyme)” the binding [1] was “binds”.
In the case of “HSV-1 UL56 protein (KOS strain, in infected cells) (from UniProt P10240 1-234)”, the binding [2] is reported as “binds”.
“HSV-1 UL56 protein (from UniProt P10240 1-234)” was tested, and the binding [3] was “binds”.
